{"source": "paper PMC7862700", "assay_in_all_cases": "DAPPL (digital affinity profiling via proximity ligation, sequencing)", "conditions_in_all_cases": "10 mM Tris-HCl pH 7.5, 50 mM NaCl, 1 mM DTT, 4% glycerol, room temperature, 30 min; GST-TFs on glutathione beads, 16-mer random dsDNA library, 0.1% …; high values mean tight binding; double strand, one strand shown; scale: fold enrichment (6-mer frequency, TF over GST control)", "key": {"ETS2": {"biological_target": "T1, ETS2 (UniProt P15036)", "T1 sequence": "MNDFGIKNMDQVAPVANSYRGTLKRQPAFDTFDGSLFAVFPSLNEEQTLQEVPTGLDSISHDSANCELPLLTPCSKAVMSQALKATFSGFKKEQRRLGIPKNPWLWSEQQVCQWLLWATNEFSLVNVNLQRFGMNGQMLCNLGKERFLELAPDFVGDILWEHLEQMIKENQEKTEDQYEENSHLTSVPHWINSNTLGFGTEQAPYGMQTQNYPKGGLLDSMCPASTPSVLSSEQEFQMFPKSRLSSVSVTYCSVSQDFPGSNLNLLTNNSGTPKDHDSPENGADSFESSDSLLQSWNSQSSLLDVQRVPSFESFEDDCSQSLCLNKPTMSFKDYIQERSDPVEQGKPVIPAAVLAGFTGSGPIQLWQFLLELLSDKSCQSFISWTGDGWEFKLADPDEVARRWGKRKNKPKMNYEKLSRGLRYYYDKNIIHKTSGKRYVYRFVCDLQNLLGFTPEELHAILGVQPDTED"}, "ETV3": {"biological_target": "T2, ETV3 (UniProt P41162-2)", "T2 sequence": "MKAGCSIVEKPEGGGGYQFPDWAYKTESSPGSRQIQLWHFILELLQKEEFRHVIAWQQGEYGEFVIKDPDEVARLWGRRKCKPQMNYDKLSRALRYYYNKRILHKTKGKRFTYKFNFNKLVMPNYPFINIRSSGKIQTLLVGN"}, "ELK3": {"biological_target": "T3, ELK3 (UniProt P41970)", "T3 sequence": "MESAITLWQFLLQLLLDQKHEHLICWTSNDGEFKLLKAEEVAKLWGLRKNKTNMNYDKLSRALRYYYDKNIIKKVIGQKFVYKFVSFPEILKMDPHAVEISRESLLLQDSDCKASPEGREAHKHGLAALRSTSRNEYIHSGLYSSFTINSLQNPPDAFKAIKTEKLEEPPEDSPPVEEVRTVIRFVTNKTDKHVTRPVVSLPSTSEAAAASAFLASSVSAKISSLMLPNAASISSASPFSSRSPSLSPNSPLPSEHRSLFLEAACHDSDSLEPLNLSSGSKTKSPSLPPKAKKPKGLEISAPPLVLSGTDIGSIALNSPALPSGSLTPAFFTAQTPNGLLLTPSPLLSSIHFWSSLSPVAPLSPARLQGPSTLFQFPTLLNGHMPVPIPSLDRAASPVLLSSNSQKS"}}, "note": "The entries are a selection whose mix differs from that of the whole data set. At the low end of the ranking the order means little."}
{"sequence": "ACATCA", "values": [{"measurement": "binding signal", "setting": "ETS2", "result": 1.11}]}
{"sequence": "TACGAA", "values": [{"measurement": "binding signal", "setting": "ETS2", "result": 1.18}, {"measurement": "binding signal", "setting": "ETV3", "result": 1.19}]}
{"sequence": "CAGAAT", "values": [{"measurement": "binding signal", "setting": "ETS2", "result": 0.983}, {"measurement": "binding signal", "setting": "ETV3", "result": 0.928}]}
{"sequence": "ACGCTG", "values": [{"measurement": "binding signal", "setting": "ELK3", "result": 0.961}, {"measurement": "binding signal", "setting": "ETS2", "result": 1.06}, {"measurement": "binding signal", "setting": "ETV3", "result": 1.26}]}
{"sequence": "CCCGAC", "values": [{"measurement": "binding signal", "setting": "ETS2", "result": 1.27}]}
{"sequence": "CTTCAA", "values": [{"measurement": "binding signal", "setting": "ELK3", "result": 1.13}, {"measurement": "binding signal", "setting": "ETS2", "result": 1.25}, {"measurement": "binding signal", "setting": "ETV3", "result": 1.29}]}
{"sequence": "AAATAT", "values": [{"measurement": "binding signal", "setting": "ETS2", "result": 1.37}, {"measurement": "binding signal", "setting": "ETV3", "result": 1.29}]}
{"sequence": "CGATTT", "values": [{"measurement": "binding signal", "setting": "ELK3", "result": 1.04}, {"measurement": "binding signal", "setting": "ETS2", "result": 1.26}, {"measurement": "binding signal", "setting": "ETV3", "result": 1.18}]}
{"sequence": "TCGATT", "values": [{"measurement": "binding signal", "setting": "ETS2", "result": 1.16}, {"measurement": "binding signal", "setting": "ETV3", "result": 1.01}]}
{"sequence": "CACTAA", "values": [{"measurement": "binding signal", "setting": "ETS2", "result": 1.18}]}
{"sequence": "CCACTT", "values": [{"measurement": "binding signal", "setting": "ETS2", "result": 1.84}]}
{"sequence": "CACGCC", "values": [{"measurement": "binding signal", "setting": "ETS2", "result": 1.09}]}
{"sequence": "TATCCG", "values": [{"measurement": "binding signal", "setting": "ETS2", "result": 2.55}, {"measurement": "binding signal", "setting": "ETV3", "result": 2.57}]}
{"sequence": "AAATTT", "values": [{"measurement": "binding signal", "setting": "ETS2", "result": 1.35}]}
{"sequence": "CGACCT", "values": [{"measurement": "binding signal", "setting": "ETS2", "result": 1.41}]}
{"sequence": "TCGTAC", "values": [{"measurement": "binding signal", "setting": "ETS2", "result": 1.07}]}
{"sequence": "CTTCTA", "values": [{"measurement": "binding signal", "setting": "ETS2", "result": 1.53}]}
{"sequence": "GCACTT", "values": [{"measurement": "binding signal", "setting": "ELK3", "result": 1.99}, {"measurement": "binding signal", "setting": "ETS2", "result": 1.76}, {"measurement": "binding signal", "setting": "ETV3", "result": 1.94}]}
{"sequence": "TTGCGG", "values": [{"measurement": "binding signal", "setting": "ETS2", "result": 1.21}]}
{"sequence": "AAGTCA", "values": [{"measurement": "binding signal", "setting": "ETS2", "result": 1.21}]}
{"sequence": "TTTTAA", "values": [{"measurement": "binding signal", "setting": "ETS2", "result": 1.28}, {"measurement": "binding signal", "setting": "ETV3", "result": 1.23}]}
{"sequence": "TTCAGT", "values": [{"measurement": "binding signal", "setting": "ETS2", "result": 1}, {"measurement": "binding signal", "setting": "ETV3", "result": 0.946}]}
{"sequence": "CTTAGG", "values": [{"measurement": "binding signal", "setting": "ELK3", "result": 1.05}, {"measurement": "binding signal", "setting": "ETS2", "result": 1.23}, {"measurement": "binding signal", "setting": "ETV3", "result": 1.1}]}
{"sequence": "GATGGC", "values": [{"measurement": "binding signal", "setting": "ETS2", "result": 1.27}]}
{"sequence": "CGACGT", "values": [{"measurement": "binding signal", "setting": "ELK3", "result": 1.07}, {"measurement": "binding signal", "setting": "ETS2", "result": 1.05}, {"measurement": "binding signal", "setting": "ETV3", "result": 1.09}]}
{"sequence": "CCTATC", "values": [{"measurement": "binding signal", "setting": "ETS2", "result": 1.2}, {"measurement": "binding signal", "setting": "ETV3", "result": 1.2}]}
{"sequence": "CGCCCG", "values": [{"measurement": "binding signal", "setting": "ELK3", "result": 1.15}, {"measurement": "binding signal", "setting": "ETS2", "result": 1.09}, {"measurement": "binding signal", "setting": "ETV3", "result": 1.3}]}
{"sequence": "ATCTAA", "values": [{"measurement": "binding signal", "setting": "ETS2", "result": 1.2}, {"measurement": "binding signal", "setting": "ETV3", "result": 1.24}]}
{"sequence": "CCCACA", "values": [{"measurement": "binding signal", "setting": "ETS2", "result": 1.13}, {"measurement": "binding signal", "setting": "ETV3", "result": 1.1}]}
{"sequence": "ACTCTC", "values": [{"measurement": "binding signal", "setting": "ETS2", "result": 1.48}, {"measurement": "binding signal", "setting": "ETV3", "result": 1.5}]}
{"sequence": "TGCCTG", "values": [{"measurement": "binding signal", "setting": "ETS2", "result": 1.28}, {"measurement": "binding signal", "setting": "ETV3", "result": 1.31}]}
{"sequence": "TAATAG", "values": [{"measurement": "binding signal", "setting": "ETS2", "result": 1.2}, {"measurement": "binding signal", "setting": "ETV3", "result": 1.15}]}
{"sequence": "GCTACC", "values": [{"measurement": "binding signal", "setting": "ETS2", "result": 1.22}, {"measurement": "binding signal", "setting": "ETV3", "result": 1.24}]}
{"sequence": "ATCATA", "values": [{"measurement": "binding signal", "setting": "ETS2", "result": 1.03}, {"measurement": "binding signal", "setting": "ETV3", "result": 1.09}]}
{"sequence": "TTCTCG", "values": [{"measurement": "binding signal", "setting": "ETS2", "result": 1.45}]}
{"sequence": "CTCTAG", "values": [{"measurement": "binding signal", "setting": "ELK3", "result": 1.26}, {"measurement": "binding signal", "setting": "ETS2", "result": 1.26}, {"measurement": "binding signal", "setting": "ETV3", "result": 1.4}]}
{"sequence": "TCTTCA", "values": [{"measurement": "binding signal", "setting": "ELK3", "result": 1.27}]}
{"sequence": "ATGACG", "values": [{"measurement": "binding signal", "setting": "ELK3", "result": 1.39}]}
